Reference: PubChem BioAssay AID743121 (NCATS, 2013)
In all, the deposit lists about 26,000 reagents; this is a random part of them. 167 of all reagents (0.63%) count as active. 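Calls are per gene from RSA p-values that are not deposited; an individual active-marked siRNA can sensitise only weakly.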 Further read-outs or replicates are left out here.

Purpose: 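Knock-downs that sensitise breast cancer cells to camptothecin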 (primary screen)
Cells: MDA-MB-231 cells, a human breast cancer line
Knock-down reagent: single siRNA against human genes, 20 nM siRNA (0.8 pmol per well)
Timing: 120 h (drug added 48 h after transfection, read 72 h later)
Challenge: camptothecin 20 nM (about EC30) for 72 h; vehicle 0.1% DMSO in parallel plates
Measurement: 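Cell viability by ATP luminescence (CellTiter-Glo) as % of non-targeting siRNA wells, and the log2 ratio of viability without drug over viability with camptothecin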
Scale: log2 vehicle/camptothecin viability: higher = stronger sensitisation to camptothecin
Call rule: 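Each gene scored by redundant siRNA activity (RSA) over its individual siRNA ratios; a gene is called active at p < 0.001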

log2 vehicle/camptothecin viability, by gene and reagent
AKAP8 (A-kinase anchoring protein 8): SID164409955 -0.0983 inactive; SID164409956 -0.445 inactive; SID164409959 0.849 inactive; SID164409960 -0.503 inactive
CRYGB (crystallin gamma B): SID164359893 -0.0802 inactive; SID164359894 -0.0667 inactive; SID164359895 -0.143 inactive; SID164359897 -0.00281 inactive
SURF1 (SURF1 cytochrome c oxidase assembly factor): SID164390419 0.0569 inactive; SID164390420 -0.354 inactive; SID164390421 0.0671 inactive; SID164390423 -0.127 inactive
KCNAB3: SID164402320 -0.0295 inactive; SID164402322 -0.22 inactive; SID164402323 0.227 inactive; SID164402324 -0.0643 inactive
DSPP (dentin sialophosphoprotein): SID164362272 -0.199 inactive; SID164362274 0.37 inactive; SID164362275 -0.118 inactive; SID164362276 -0.462 inactive
SPSB3 (splA/ryanodine receptor domain and SOCS box containing 3): SID164550613 -0.525 inactive; SID164550614 -0.121 inactive; SID164550616 0.0163 inactive; SID164550617 -0.112 inactive
SNAI2 (snail family transcriptional repressor 2): SID164388776 0.393 inactive; SID164388777 -0.321 inactive; SID164388778 -0.0904 inactive; SID164388779 0.0344 inactive
NPSR1 (neuropeptide S receptor 1): SID164676287 -0.0309 inactive; SID164676288 -0.0951 inactive; SID164676291 0.715 inactive; SID164676296 -0.233 inactive
TXNIP (thioredoxin interacting protein): SID164412441 1.34 inactive; SID164412442 0.205 inactive; SID164412443 -0.00147 inactive; SID164412444 0.331 inactive
MORN5 (MORN repeat containing 5): SID164605698 -0.178 inactive; SID164605699 -0.257 inactive; SID164605700 0.0512 inactive; SID164605704 -0.158 inactive
SLC1A5: SID164388212 0.129 inactive; SID164388213 -0.208 inactive; SID164388215 -0.439 inactive
CYB5R3 (cytochrome b5 reductase 3): SID164361523 -0.337 inactive; SID164361524 0.473 inactive; SID164361526 -0.255 inactive; SID164361528 1.29 inactive
MARK1 (microtubule affinity regulating kinase 1): SID164374832 -0.304 inactive; SID164374836 -0.173 inactive; SID164374838 -0.0176 inactive; SID164374839 -0.182 inactive
OIT3 (oncoprotein induced transcript 3): SID164580445 -0.117 inactive; SID164580446 -0.49 inactive; SID164580448 0.519 inactive; SID164580449 -0.146 inactive
NOX4 (NADPH oxidase 4): SID164469786 -0.0564 inactive; SID164469787 0.083 inactive; SID164469790 -0.0555 inactive
SCN7A (sodium voltage-gated channel alpha subunit 7): SID164387150 -0.0415 inactive; SID164387154 0.0248 inactive; SID164387155 -0.00806 inactive; SID164387157 0.00702 inactive
DNAJC10 (DnaJ heat shock protein family (Hsp40) member C10): SID164478571 0.369 inactive; SID164478572 -0.294 inactive; SID164478574 -0.277 inactive; SID164478575 -0.0824 inactive
HTR4 (5-hydroxytryptamine receptor 4): SID164370448 -0.453 inactive; SID164370450 -0.235 inactive; SID164370455 0.0139 inactive; SID164370457 0.293 inactive
